Laboratory results as given in patent US5880160A (priority 1995, dated 1999).

Tested on: MCF-7 (human breast)
Assay: cells
Format: cell-based
Conditions: MCF7, read-out: IC50 MCF-7 (human breast)

COc1cc2c(c(OC)c1OC)-c1ccc(OC)c(=O)cc1[C@@H](NC(C)=O)CC2 [Colchicine, colchicine, reference compound]
IC50: 4.4 ± 0.3 nM
